Test results taken from paper PMC11024860.
No constants are given. Whether binding was seen depends on the method and setting. In cells and extracts the contact can be indirect. Some results given as binding are weak or reduced against the parent protein; the word gives no strength. For some of these results: Sequences can lack the tags named with a protein.

The chains behind the UniProt entries cited, without tags or fusion partners.
UniProt Q9UBN7: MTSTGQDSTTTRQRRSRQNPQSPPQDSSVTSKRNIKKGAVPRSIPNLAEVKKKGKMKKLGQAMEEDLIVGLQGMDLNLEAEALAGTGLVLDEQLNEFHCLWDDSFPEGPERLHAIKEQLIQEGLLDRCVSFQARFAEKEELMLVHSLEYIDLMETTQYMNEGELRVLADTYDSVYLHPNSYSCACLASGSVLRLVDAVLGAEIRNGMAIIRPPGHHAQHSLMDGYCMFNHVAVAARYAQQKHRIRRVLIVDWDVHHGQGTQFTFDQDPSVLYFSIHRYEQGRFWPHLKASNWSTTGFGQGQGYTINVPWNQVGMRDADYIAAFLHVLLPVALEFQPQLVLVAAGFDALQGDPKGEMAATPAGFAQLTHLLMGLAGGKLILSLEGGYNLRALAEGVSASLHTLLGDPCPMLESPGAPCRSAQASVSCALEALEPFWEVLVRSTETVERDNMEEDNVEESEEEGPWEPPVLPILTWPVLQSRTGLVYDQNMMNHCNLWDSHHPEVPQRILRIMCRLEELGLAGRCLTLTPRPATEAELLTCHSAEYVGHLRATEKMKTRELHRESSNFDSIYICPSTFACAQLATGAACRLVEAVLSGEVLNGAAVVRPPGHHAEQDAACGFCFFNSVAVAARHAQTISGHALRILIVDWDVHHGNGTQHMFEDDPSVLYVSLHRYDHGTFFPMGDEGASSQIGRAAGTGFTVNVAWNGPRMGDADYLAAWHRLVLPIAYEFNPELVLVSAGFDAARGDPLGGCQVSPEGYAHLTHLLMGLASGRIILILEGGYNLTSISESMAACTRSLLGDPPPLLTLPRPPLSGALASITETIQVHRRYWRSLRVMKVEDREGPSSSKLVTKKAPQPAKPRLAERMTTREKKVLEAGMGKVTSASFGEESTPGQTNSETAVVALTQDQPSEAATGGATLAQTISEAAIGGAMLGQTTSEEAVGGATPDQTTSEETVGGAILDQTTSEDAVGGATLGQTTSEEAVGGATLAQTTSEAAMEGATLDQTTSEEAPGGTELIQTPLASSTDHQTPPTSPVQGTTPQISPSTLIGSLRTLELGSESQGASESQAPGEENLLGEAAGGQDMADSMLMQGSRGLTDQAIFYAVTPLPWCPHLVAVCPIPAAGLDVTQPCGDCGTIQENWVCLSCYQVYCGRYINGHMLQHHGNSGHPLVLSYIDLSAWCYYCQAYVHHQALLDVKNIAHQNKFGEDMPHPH
UniProt Q61037: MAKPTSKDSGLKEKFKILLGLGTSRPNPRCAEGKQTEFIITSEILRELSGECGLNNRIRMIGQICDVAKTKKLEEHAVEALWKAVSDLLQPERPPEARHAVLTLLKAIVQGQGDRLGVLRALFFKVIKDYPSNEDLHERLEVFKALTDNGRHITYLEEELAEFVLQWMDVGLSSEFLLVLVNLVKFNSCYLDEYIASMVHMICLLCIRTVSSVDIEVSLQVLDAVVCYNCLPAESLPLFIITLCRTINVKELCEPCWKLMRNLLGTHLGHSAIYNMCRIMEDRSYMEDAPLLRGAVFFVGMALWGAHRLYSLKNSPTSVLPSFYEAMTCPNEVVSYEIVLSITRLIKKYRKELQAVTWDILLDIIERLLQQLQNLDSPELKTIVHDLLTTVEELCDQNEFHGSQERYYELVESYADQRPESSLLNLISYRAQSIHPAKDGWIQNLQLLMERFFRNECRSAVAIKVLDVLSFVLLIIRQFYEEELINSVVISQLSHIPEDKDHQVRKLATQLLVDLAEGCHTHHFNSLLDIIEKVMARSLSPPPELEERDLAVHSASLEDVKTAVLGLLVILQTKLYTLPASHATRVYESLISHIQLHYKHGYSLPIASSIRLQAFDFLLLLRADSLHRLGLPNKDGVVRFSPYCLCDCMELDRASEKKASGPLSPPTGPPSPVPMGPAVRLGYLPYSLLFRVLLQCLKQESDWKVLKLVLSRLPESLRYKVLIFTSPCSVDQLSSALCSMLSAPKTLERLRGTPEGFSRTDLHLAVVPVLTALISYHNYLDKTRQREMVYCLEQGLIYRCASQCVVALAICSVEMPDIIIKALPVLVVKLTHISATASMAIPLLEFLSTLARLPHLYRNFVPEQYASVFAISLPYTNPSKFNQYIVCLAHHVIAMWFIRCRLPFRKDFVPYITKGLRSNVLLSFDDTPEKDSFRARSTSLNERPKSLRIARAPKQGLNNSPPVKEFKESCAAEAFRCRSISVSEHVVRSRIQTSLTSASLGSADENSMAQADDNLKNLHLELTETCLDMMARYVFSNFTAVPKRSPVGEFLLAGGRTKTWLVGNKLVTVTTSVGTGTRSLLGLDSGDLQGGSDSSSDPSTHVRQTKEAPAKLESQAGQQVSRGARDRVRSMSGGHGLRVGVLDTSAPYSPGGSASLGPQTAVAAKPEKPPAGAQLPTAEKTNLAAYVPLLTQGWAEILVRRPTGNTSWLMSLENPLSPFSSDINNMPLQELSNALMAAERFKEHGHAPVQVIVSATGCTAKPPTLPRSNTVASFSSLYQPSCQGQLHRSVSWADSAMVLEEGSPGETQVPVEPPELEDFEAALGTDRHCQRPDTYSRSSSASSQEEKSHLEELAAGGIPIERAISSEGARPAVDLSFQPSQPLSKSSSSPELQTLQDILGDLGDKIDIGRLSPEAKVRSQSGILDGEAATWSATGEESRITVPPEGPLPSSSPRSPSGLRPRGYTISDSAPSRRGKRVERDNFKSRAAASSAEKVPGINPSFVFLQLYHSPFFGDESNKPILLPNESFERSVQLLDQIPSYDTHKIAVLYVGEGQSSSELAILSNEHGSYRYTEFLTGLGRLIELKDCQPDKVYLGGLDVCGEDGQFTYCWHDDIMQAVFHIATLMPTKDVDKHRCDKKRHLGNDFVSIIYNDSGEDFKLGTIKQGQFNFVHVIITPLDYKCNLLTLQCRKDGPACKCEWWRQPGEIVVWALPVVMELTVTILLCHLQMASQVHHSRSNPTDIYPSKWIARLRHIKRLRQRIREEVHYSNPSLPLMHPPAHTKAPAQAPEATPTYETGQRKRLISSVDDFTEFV

T1: histone deacetylase 6 (HDAC6), endogenous, mouse (mouse (endogenous in mouse ovary, kidney and liver)) (UniProt Q9Z2V5)
T1 sequence: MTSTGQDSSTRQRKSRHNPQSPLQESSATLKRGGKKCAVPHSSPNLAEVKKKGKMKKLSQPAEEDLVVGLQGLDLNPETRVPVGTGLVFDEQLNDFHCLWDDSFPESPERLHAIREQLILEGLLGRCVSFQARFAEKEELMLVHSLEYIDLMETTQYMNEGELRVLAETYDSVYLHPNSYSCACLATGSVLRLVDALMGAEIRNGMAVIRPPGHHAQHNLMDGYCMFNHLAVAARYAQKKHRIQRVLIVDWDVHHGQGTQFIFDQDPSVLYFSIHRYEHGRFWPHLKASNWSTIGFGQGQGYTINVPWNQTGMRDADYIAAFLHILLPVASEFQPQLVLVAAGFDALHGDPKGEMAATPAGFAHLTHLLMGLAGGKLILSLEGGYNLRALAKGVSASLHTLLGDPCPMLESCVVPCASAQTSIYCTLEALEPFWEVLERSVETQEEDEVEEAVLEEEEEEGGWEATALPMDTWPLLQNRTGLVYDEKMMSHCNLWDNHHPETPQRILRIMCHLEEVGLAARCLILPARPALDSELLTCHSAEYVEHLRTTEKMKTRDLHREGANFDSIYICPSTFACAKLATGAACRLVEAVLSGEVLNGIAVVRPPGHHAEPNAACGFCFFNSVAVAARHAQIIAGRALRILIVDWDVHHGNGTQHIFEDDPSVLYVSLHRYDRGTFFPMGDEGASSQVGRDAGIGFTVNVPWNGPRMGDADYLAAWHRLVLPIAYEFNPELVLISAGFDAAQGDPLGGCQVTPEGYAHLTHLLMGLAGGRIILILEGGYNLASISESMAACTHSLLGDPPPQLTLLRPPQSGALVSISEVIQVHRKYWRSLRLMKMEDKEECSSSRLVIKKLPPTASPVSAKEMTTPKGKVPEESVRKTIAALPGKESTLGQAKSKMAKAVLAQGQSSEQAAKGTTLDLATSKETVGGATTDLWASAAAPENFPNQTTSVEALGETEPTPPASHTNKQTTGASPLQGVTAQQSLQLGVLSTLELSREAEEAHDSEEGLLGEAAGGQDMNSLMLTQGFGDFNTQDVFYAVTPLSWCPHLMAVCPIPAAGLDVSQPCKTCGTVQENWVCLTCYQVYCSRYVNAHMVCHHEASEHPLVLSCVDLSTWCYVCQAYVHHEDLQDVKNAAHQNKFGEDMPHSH

T2: mouse HDAC6 fused with a GFP tag (Hdac6-OE transgenic mouse) (mouse) (UniProt Q9Z2V5)
T2 sequence: T1 sequence

B1: brain-derived neurotrophic factor (BDNF), endogenous, mouse (ligand, UniProt P21237 19-249)
chain: APMKEVNVHGQGNLAYPGVRTHGTLESVNGPRAGSRGLTTTSLADTFEHVIEELLDEDQKVRPNEENHKDADLYTSRVMLSSQVPLEPPLLFLLEEYKNYLDAANMSMRVRRHSDPARRGELSVCDSISEWVTAADKKTAVDMSGGTVTVLEKVPVSKGQLKQYFYETKCNPMGYTKEGCRGIDKRHWNSQCRTTQSYVRALTMDSKKRIGWRFIRIDTSCVCTLTIKRGR
B2: brain-derived neurotrophic factor (BDNF), endogenous, KGN cells (ligand, UniProt P23560 19-247)
chain: APMKEANIRGQGGLAYPGVRTHGTLESVNGPKAGSRGLTSLADTFEHVIEELLDEDQKVRPNEENNKDADLYTSRVMLSSQVPLEPPLLFLLEEYKNYLDAANMSMRVRRHSDPARRGELSVCDSISEWVTAADKKTAVDMSGGTVTVLEKVPVSKGQLKQYFYETKCNPMGYTKEGCRGIDKRHWNSQCRTTQSYVRALTMDSKKRIGWRFIRIDTSCVCTLTIKRGR

Experiments:
[1] = molecular target: T1, histone deacetylase 6 (HDAC6), endogenous, mouse (mouse (endogenous in mouse ovary, kidney and liver)); experiment: co-IP; lysates of kidney and liver of 7 dpp wild-type and Hdac6-OE mice; precipitated with HDAC6 antibody, protein A/G magnetic beads, NP-40 washes, Western blot (Figure 7F-G)
[2] = molecular target: T2, mouse HDAC6 fused with a GFP tag (Hdac6-OE transgenic mouse) (mouse); experiment: co-IP; lysates of kidney and liver of wild-type and Hdac6-OE mice; precipitated with GFP antibody, protein A/G magnetic beads, NP-40 washes, Western blot (Figure 7H-I)
[3] = molecular target: histone deacetylase 6 (HDAC6), endogenous, KGN cells (human (endogenous in KGN)) (UniProt Q9UBN7); experiment: co-IP; KGN cells; 'Co-IP analysis of HDAC6 and NGF'; panels in Figure S12E-G, precipitating antibody of each panel not shown

Molecule | binding [1] | binding [2] | binding [3]
TSC2, endogenous, mouse (from UniProt Q61037 1-1814) | binds | – | –
B1 | binds | binds | –
B2 | – | – | binds
